# Like-named read-outs stand apart in the source and are kept apart here. Results are given in words; binding and its absence hold for the method and conditions named. In cells and extracts the contact can be indirect. Some entries that bind do so weakly or less than the wild type. For some of these results: Tags and fused reporters may be left off the sequences shown.
# The chains behind the UniProt entries cited, without tags or fusion partners.
# UniProt Q12446: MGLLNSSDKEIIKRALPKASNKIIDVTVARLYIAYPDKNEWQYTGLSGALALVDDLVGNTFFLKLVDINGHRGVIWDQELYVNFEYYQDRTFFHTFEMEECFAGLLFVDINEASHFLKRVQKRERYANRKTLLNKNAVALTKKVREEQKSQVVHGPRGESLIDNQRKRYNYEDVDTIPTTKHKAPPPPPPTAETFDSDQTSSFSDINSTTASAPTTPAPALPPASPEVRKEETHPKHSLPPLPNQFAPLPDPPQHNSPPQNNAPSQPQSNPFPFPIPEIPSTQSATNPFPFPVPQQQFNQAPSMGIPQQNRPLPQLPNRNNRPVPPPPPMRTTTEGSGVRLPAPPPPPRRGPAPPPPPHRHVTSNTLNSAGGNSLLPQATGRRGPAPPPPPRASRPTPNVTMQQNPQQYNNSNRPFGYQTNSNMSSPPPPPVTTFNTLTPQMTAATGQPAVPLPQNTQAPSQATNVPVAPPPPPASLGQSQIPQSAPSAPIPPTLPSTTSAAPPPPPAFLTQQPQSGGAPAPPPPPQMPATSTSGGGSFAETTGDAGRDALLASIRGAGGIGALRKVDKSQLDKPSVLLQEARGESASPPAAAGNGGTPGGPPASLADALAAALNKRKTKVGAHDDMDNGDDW
# T1: Sla1, C-terminally tagged (GFP/mCherry screen) (S. cerevisiae) (UniProt P32790)
# T1 sequence: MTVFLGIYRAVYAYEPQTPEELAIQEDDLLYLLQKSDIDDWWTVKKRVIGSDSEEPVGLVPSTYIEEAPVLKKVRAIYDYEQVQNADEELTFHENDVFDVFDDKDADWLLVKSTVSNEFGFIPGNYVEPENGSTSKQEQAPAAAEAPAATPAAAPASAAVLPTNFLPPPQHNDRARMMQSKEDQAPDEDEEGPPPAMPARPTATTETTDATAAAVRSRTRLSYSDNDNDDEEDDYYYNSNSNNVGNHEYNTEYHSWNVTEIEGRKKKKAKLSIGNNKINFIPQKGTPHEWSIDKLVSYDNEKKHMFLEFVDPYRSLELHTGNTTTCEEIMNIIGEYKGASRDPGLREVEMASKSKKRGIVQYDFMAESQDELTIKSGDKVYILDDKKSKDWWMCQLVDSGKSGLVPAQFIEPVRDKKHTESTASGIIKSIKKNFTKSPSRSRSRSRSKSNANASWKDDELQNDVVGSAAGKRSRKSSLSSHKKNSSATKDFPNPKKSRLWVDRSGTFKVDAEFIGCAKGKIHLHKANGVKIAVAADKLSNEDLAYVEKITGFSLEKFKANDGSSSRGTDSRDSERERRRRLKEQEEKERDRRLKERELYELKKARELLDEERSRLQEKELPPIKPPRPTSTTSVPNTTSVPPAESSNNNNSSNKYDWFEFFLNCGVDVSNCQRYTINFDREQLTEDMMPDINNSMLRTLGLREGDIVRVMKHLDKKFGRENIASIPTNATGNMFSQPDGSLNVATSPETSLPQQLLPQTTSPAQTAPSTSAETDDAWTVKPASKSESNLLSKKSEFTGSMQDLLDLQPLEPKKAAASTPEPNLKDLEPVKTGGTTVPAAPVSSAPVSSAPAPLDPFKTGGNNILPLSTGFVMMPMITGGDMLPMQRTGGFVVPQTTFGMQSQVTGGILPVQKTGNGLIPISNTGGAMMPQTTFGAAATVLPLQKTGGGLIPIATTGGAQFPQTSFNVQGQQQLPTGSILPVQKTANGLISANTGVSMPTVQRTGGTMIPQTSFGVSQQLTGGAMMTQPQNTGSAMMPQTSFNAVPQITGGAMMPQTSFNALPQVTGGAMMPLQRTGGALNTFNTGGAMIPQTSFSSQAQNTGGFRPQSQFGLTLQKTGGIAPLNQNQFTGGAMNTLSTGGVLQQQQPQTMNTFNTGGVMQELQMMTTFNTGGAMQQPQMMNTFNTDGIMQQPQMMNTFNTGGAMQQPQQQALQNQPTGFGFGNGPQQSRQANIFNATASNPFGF
# T2: Sla1, N-terminally tagged with mNeonGreen (S. cerevisiae) (UniProt P32790)
# T2 sequence: T1 sequence
# T3: Sla1-mNeonGreen (S. cerevisiae) (UniProt P32790)
# T3 sequence: T1 sequence
# T4: Ede1, fluorescently tagged (Syp1-Ede1 pair) (S. cerevisiae) (UniProt P34216)
# T4 sequence: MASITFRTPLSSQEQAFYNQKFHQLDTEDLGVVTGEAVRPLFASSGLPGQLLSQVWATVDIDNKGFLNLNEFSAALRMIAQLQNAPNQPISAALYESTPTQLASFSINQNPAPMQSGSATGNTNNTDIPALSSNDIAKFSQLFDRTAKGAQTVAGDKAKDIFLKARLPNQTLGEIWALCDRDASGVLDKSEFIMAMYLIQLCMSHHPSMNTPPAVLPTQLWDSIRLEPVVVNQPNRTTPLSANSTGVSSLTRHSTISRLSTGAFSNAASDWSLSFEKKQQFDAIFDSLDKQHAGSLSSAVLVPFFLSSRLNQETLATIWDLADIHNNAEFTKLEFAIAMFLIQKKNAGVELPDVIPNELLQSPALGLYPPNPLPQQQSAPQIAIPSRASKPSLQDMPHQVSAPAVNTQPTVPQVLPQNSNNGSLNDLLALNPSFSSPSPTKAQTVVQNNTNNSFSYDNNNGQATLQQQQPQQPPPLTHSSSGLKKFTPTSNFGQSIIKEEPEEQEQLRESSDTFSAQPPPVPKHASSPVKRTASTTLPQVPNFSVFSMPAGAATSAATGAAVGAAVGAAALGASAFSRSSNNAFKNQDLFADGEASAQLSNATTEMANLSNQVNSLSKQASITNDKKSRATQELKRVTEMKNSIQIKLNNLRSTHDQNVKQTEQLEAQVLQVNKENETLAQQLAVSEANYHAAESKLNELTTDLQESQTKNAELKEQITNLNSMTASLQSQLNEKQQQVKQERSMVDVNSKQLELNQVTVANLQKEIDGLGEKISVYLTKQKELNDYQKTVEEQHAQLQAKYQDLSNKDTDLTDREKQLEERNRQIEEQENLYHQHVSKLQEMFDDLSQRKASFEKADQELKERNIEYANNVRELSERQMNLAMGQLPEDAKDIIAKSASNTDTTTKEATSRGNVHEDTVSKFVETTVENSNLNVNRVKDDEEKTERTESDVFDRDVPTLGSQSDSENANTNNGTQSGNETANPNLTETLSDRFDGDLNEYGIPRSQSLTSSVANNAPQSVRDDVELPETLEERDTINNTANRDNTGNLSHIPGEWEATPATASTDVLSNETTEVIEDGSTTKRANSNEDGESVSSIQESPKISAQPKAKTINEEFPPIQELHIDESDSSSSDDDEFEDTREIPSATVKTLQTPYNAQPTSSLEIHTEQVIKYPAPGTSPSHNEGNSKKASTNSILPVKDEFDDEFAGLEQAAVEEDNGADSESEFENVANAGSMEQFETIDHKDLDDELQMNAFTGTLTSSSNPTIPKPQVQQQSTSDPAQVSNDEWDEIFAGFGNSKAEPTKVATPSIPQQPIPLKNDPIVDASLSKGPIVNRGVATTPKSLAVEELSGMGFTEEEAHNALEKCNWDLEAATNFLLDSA
# T5: End3, fluorescently tagged (Pan1-End3 pair of Table 1) (S. cerevisiae) (UniProt P39013)
# T5 sequence: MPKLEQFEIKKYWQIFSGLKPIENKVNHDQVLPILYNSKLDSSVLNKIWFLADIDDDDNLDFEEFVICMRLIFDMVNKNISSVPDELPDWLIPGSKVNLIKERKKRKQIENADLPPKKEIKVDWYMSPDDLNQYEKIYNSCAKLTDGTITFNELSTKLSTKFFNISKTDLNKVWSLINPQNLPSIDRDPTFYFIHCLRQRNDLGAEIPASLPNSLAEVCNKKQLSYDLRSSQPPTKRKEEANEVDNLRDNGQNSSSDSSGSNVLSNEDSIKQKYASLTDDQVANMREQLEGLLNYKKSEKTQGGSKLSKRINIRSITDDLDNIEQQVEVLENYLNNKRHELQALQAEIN
# B1: Syp1, fluorescently tagged (Syp1-Ede1 pair) (protein, UniProt P25623 1-870)
# chain: MTEQRTKYADSILTTKSPYEATETIRIRLSQVKLLNKDFYLLFKELANLKRNYAQQLRKIIAENEDITKILNAQMIESNVLTPQEMSAFRFNSLGELRNVWDTVIEELKSDLKSSTEYYNTLDQQVVRELKESVENNTSWRESKDLHSKLSKNAASIEHYSKNNENSSHLEEARRQWDQQSPYLFELFETIDYNRLDTLKNCMLRFQTSFSDYLLNTTKECETVMTKFLAFEPQSEIDRFAKDASQYNFQLSSSSKEVVPNNASPASATGARPVSVSNGAANTEREKKSPQKDKRKSAFGNIGHRLASASSSLTHNDLMNNEFSDSTNNSSLKSKKSSHTLRSKVGSIFGRNKTKNKRQQQSSSNSHIQASITETPNNSSTRVSSTATSSIYQKQRRPTYSSSKSNNWTPGEASDTPPLPPHATPKNVDAPVTADTPPAQTFTPSEVPPSTPQQSSPPTAKEPDSSNLPKTVPISISQPPLQPQSKTKPLPVEPASPSISLPTATVDNQPSGQVDSRPLHIRAPALPPSRKQNFIHNRDSQLYDSLPNHGSGATPTSSSLSSIPQERPVSTLSSQITGELRELNPQATGSSTSLVGQSLFQHSSLDTSQFGLNASIAEVLNASFKDGMLQNSQLIGEIALNYLPNSVMNSPLPIGINLRINNGAKFEKVILNQAFIERVAPEEFKVNPSFIDSRTLGAIKYSIKEPIAPIVIHPVWRFESHQASVVLTVKMSPSLPDEISQIVIEDLVVFVNIDGANATSALSKPQGSFSKEKKRITWRFKEPVVLTRNGEGQRLIARFITDGLAHESAKGVITKFTISETDNVALPHSGAGSGITLTCQELDENNPFGGEWLDVNTKRTLTTGNYHGLA
# B2: Pan1, fluorescently tagged (Pan1-End3 pair of Table 1) (protein, UniProt P32521 1-1480)
# chain: MYNPYQQQGMGYQQQQQQQQQQPNGFYPQQQQGQSSNQPQGQPQPQQQMAFNQPQATGIGGMPQSFGNSFSSMPQQPQTGYNNNGNNGSVYGNGNFGQQPQQQQQQAKPQHTGYVPNSSMPMMNTTGTMPPPNPAQQPQLQSIQPQGTGYYQAANTANVHSVQPLQSQGTGYYVSTPNLISSNQTQQPLQAQGTGYYQSQPQQVPPPQQAQSLQPLKPQQTGFYLQPQNQAPLEPLKPTATGFVNSFANNGLNNDIKIPAIRLSFITAQDQAKFETLFRSIVTNGSNTVSGANCRKILMRSGLPPSQLARIWTLCDTSKAGELLFPEFALAMHLINDVLQGDTIPYELDSKTKNEVSSFIDAINLSIANQDSSANDAPKTPFDEFITAGVQNLQPQPTGYMPQTSFGIPLQSQITGGGVASALNPQSTGFMAPTTFNMSMNTGTPGLNPQITGGAPASMQPNITGNALQPQTTGMMPQTTGMMPQTTGMMPQTSFGVNLGPQLTGGALQSQYTGGYGSVMPQQSGPASMPNLSFNQQGLQSQLTGLQPQPTGFLPPSNFSATMPLTAQKTGFGNNEIYTKSNFNNNLIDNSSQDKISTEEKSLFYKIFETFDTQNKGLLDSPTAVEIFRKSGLNRADLEQIWNLCDINNTGQLNKQEFALGMHLVYGKLNGKPIPNVLPSSLIPSSTKLLDNLKNQLKTEPTTTKEKPSFGKIDALSYKNNDDDVLPNYRNRRKVYSAKNEEQSSFSSPSAKSVNHSSSTLQTDDISVDKTVEKKTAKPKYAGFSREINLKNIASLENEIKNISNPENCYDSSIPSDLTSRFDAIIAKLPNLFNEISTIDNEITNAKIQLYRKKNPSSIIGSGPNGEITENDRKKAKSRALLRARMSALTGKSTESEDSLSMEDEQQSAEIKRIQQENGKNQEIIKDIRSSISDISASLKSTMTGSNMISNQEFERWEFGIGLEDGVREFLDDLKSNSNKSVTESSPFVPSSTPTPVDDRSSSPSYSQFKTAEERAAYLKEQAKKRMKEKLAKFDKNRRNVTQSSRSISSENSREQPQQIAGSSNLVEPRATPFQEEKYVEVAQPTQPVQSTQPVQPTQPVQPTQPVQPTQPVQPTQPVQPTQPVQNVYNAKQESDDEDEDDEEKRLQEELKRLKLKKKADKEKRLAALRKQIEDAQNESDEEETNGKDNFGGHVNVPQAAPVAPSAAFSQNSTNAPRSVHAAVTPAAGKNSTGLPSTTMGHNPYFKDASASSTSTFDARAAEMQRRIQRGLDEDEDDGWSDEDESNNRVAVDNKVEEAKIGHPDHARAPPVTAAPLPSVTPVPPAVPVPQANTSNEKSSPIPIAPIPPSVTQEPPVPLAPPLPAVDGFQEPPIPSAPAIATAVQKSGSSTPALAGGVLPPPPPLPTQQASTSEPIIAHVDNYNGAEKGTGAYGSDSDDDVLSIPESVGTDEEEEGAQPVSTAGIPSIPPAGIPPPPPLP
# Tests used:
# Assay in all cases: FRET or BRET
# [1] = target: T1, Sla1, C-terminally tagged (GFP/mCherry screen) (S. cerevisiae)
# [2] = target: T2, Sla1, N-terminally tagged with mNeonGreen (S. cerevisiae)
# [3] = target: T3, Sla1-mNeonGreen (S. cerevisiae)
# [4] = target: T4, Ede1, fluorescently tagged (Syp1-Ede1 pair) (S. cerevisiae)
# [5] = target: T4, Ede1, fluorescently tagged (Syp1-Ede1 pair) (S. cerevisiae); remark: listed apart in the source
# [6] = target: T5, End3, fluorescently tagged (Pan1-End3 pair of Table 1) (S. cerevisiae)
# [7] = target: T5, End3, fluorescently tagged (Pan1-End3 pair of Table 1) (S. cerevisiae); remark: listed apart in the source
molecule,measurement,setting,value
"Las17, C-terminally tagged (from UniProt Q12446 1-633)",binding,[1],binds
"Las17, N-terminally tagged with mTurquoise2 (from UniProt Q12446 1-633)",binding,[2],binds
same,binding,[3],binds
B1,binding,[4],binds
same,binding,[5],binds
B2,binding,[6],binds
same,binding,[7],binds
